PubChem BioAssay AID720505 – Drosophila RNAi Screening Center, 2013

- Assay: 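Fly regulators or components of the CRAC channel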 (primary screen)
- Cell system: Drosophila S2R+ cells
- Knock-down reagent: long dsRNA against Drosophila genes
- Challenge: thapsigargin (2 µM) in calcium-free buffer to empty internal stores, then 2 mM calcium added back
- Detection: 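Stores emptied by 2 µM thapsigargin without calcium, then 2 mM calcium re-added; fluo-4 fluorescence followed by FLIPR in 384-well plates, per-well averaged endpoint, raw; two screen passes, some wells retested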
- Scale: calcium signal and retest calcium signal: higher = more calcium entry after store depletion
- Call rule: 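About 1500 genes called as lowering calcium entry, by varying amounts, judged against per-plate control wells with STIM1 as positive and Rho1 as negative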
- Meaning of the calls: active = called as lowering calcium entry; inactive = not called
In all, the deposit lists about 20,000 reagents; this is a random part of those with a known target gene and a result. Over the whole deposit, about 2,100 (10%) got an active call. 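Raw plate signals without normalisation; calls rest on control-based scores that were not deposited; replicate 2 separates called from uncalled poorly.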 A plus sign joins genes that one reagent is predicted to hit. Not given: the amount of reagent, the time to read-out.

The opening 7 records, to show the layout:
| Target gene | DRSC id | calcium signal, replicate 1 | calcium signal, replicate 2 | retest calcium signal, replicate 1 | retest calcium signal, replicate 2 | outcome |
| --- | --- | --- | --- | --- | --- | --- |
| CG3376 | DRSC04362 | 141 | 93.1 | – | – | inactive |
| l(3)80Fg | DRSC21645 | 95.6 | 85.4 | – | – | inactive |
| l(3)80Fg | DRSC22171 | 90.1 | 208 | – | – | inactive |
| nis | DRSC00290 | 137 | 202 | – | – | inactive |
| PK1-R | DRSC16577 | 89.4 | 125 | – | – | inactive |
| CG5554 | DRSC04513 | 109 | 172 | – | – | inactive |
| CG32192 | DRSC21760 | 139 | 97 | – | – | inactive |

Results, from the first entry:
| Target gene | DRSC id | calcium signal, replicate 1 | calcium signal, replicate 2 | retest calcium signal, replicate 1 | retest calcium signal, replicate 2 | outcome |
| --- | --- | --- | --- | --- | --- | --- |
| CG3376 | DRSC04362 | 141 | 93.1 | – | – | inactive |
| l(3)80Fg | DRSC21645 | 95.6 | 85.4 | – | – | inactive |
| l(3)80Fg | DRSC22171 | 90.1 | 208 | – | – | inactive |
| nis | DRSC00290 | 137 | 202 | – | – | inactive |
| PK1-R | DRSC16577 | 89.4 | 125 | – | – | inactive |
| CG5554 | DRSC04513 | 109 | 172 | – | – | inactive |
| CG32192 | DRSC21760 | 139 | 97 | – | – | inactive |
| CG3224 | DRSC18295 | 208 | 169 | – | – | inactive |
| Psf3 | DRSC18216 | 58.8 | 79.1 | – | – | inactive |
| Psf3 | DRSC21487 | 177 | 107 | – | – | inactive |
| spdi | DRSC18487 | 132 | 147 | – | – | inactive |
| spdi | DRSC18488 | 68 | 145 | – | – | inactive |
| CG4301 | DRSC19886 | 71.6 | 79.6 | – | – | active |
| Chs2 | DRSC11830 | 87.5 | 147 | – | – | inactive |
| CG5776 | DRSC02891 | 95.8 | 140 | – | – | inactive |
| pncr004:X (retired record) | DRSC19295 | 121 | 131 | – | – | inactive |
| CG43077 | DRSC19168 | 58.8 | 106 | – | – | inactive |
| CG32576 | DRSC19136 | 75.2 | 96 | – | – | inactive |
| CG2291 | DRSC06836 | 143 | 155 | – | – | inactive |
| Plod | DRSC10601 | 135 | 137 | – | – | inactive |
| Plod | DRSC10602 | 84.7 | 86.7 | – | – | inactive |
| Cyp308a1 | DRSC20238 | 45.8 | 80.9 | – | – | active |
| cher | DRSC16924 | 192 | 176 | – | – | inactive |
| cN-IIIB | DRSC04359 | 72.5 | 170 | – | – | active |
| Teh2 | DRSC08458 | 66.4 | 71.4 | – | – | active |
| Alas | DRSC04044 | 145 | 81.2 | – | – | inactive |
| Fbxl7 | DRSC15553 | 196 | 205 | – | – | inactive |
| Nepl10 | DRSC07212 | 120 | 141 | – | – | inactive |
| Nhe3 | DRSC03380 | 121 | 108 | – | – | inactive |
| CG42534 | DRSC14722 | 230 | 170 | – | – | inactive |
| CG42534 | DRSC14759 | 143 | 142 | – | – | inactive |
| CG42534 | DRSC16072 | 149 | 130 | – | – | inactive |
| CG42534 | DRSC23131 | 110 | 188 | – | – | inactive |
| Ude | DRSC15324 | 146 | 201 | – | – | inactive |
| Invadolysin | DRSC15527 | 68.6 | 96.3 | – | – | active |
| Oatp74D | DRSC10883 | 156 | 109 | – | – | inactive |
| CG8026 | DRSC07055 | 137 | 98.2 | 89.6 | 115 | inactive |
| CG8026 | DRSC07056 | 170 | 181 | – | – | inactive |
| CG9737 | DRSC16550 | 128 | 109 | – | – | inactive |
| Cyt-b5-r | DRSC03308 | 89.2 | 85.7 | – | – | inactive |
| inaD | DRSC04694 | 152 | 185 | – | – | inactive |
| CG2680 | DRSC18466 | 148 | 183 | – | – | inactive |
| Idgf6 | DRSC07360 | 101 | 131 | – | – | inactive |
| CG9436 | DRSC05005 | 154 | 116 | – | – | inactive |
| CG10232 | DRSC14218 | 155 | 145 | – | – | inactive |
| Tom70 | DRSC02990 | 88.8 | 134 | 116 | 120 | inactive |
| grsm | DRSC14165 | 104 | 88.1 | – | – | inactive |
| grsm | DRSC14843 | 97.4 | 102 | – | – | inactive |
| RunxB | DRSC20395 | 95.1 | 112 | – | – | inactive |
| RunxB | DRSC20525 | 200 | 96.1 | – | – | inactive |
| RunxB | DRSC20526 | 67.1 | 120 | – | – | active |
| RunxB | DRSC23150 | 87.6 | 132 | – | – | inactive |
| Cht12 | DRSC03844 | 104 | 9829 | – | – | inactive |
| ATPsynO | DRSC16780 | 91.1 | 83.3 | – | – | inactive |
| l(2)37Bb | DRSC02088 | 159 | 119 | 143 | 113 | inactive |
| Pex14 | DRSC11754 | 105 | 131 | – | – | inactive |
| CG17169 | DRSC20905 | 69.4 | 140 | – | – | active |
| CG31806 | DRSC02787 | 114 | 99.5 | – | – | inactive |
| CG11400 | DRSC06070 | 134 | 130 | – | – | inactive |
| CG11456 | DRSC11665 | 166 | 121 | – | – | inactive |
| CG7900 | DRSC16336 | 107 | 172 | 5265 | 136 | inactive |
| CG7900 | DRSC21343 | 170 | 101 | – | – | inactive |
| CG16711 | DRSC10220 | 100 | 77.8 | – | – | inactive |
| CG1622 | DRSC19745 | 108 | 136 | – | – | inactive |
| Or65a | DRSC08808 | – | – | – | – | inactive |
| CG12986 | DRSC19506 | 89.9 | 126 | – | – | inactive |
| alien + CG17906 | DRSC02641 | 114 | 148 | – | – | inactive |
| Six4 | DRSC11881 | 98.3 | 168 | – | – | inactive |
| soti | DRSC16432 | 121 | 197 | – | – | inactive |
| Optix | DRSC05078 | 121 | 138 | 5437 | 136 | inactive |
| Optix | DRSC07484 | 172 | 117 | – | – | inactive |
| Optix | DRSC21963 | 69.3 | 226 | – | – | inactive |
| MAPk-Ak2 | DRSC18678 | 223 | 134 | – | – | inactive |
| CG12355 | DRSC09381 | 114 | 99 | – | – | inactive |
| CG12355 | DRSC09883 | 107 | 126 | – | – | inactive |
| CG7140 | DRSC11799 | 89.2 | 134 | – | – | inactive |
| CG31272 | DRSC16058 | 168 | 115 | – | – | inactive |
| CG11109 | DRSC11633 | 161 | 94.7 | – | – | inactive |
| Smvt | DRSC15426 | 81.8 | 131 | – | – | inactive |
| CG42516 + Pbp49 | DRSC06073 | 197 | 176 | – | – | inactive |
| fend | DRSC17867 | 67.6 | 86.2 | – | – | inactive |
| CIA30 | DRSC16266 | 105 | 108 | – | – | inactive |
| GstD3 | DRSC15571 | 107 | 117 | – | – | inactive |
